# This is one part of the list.
# Biological target: T1, OsSMF1 (Oryza sativa, UniProt Q6ZLB0 1-436)
# T1 sequence: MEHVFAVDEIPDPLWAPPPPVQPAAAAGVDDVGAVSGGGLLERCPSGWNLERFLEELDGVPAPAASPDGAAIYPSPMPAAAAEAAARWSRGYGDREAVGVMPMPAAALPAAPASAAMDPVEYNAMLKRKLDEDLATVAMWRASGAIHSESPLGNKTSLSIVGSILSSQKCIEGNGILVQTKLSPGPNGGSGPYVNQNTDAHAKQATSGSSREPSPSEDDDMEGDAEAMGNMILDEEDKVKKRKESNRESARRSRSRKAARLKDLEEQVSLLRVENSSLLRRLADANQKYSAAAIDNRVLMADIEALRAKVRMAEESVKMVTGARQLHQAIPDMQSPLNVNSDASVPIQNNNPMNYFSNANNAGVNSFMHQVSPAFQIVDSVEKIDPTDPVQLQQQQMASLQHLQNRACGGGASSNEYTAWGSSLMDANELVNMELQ
# Test: protein-binding microarray (RPBM); PBS, 2% BSA, 51.3 ng/ul salmon testes DNA, 50 uM zinc acetate, 200 nM TF, 25 C, 1 h; high values mean tight binding
# Settings: protein: recombinant; tags: N-terminal polyhistidine and DsRed monomer fusion (pET32a); chain copies: 2; label: CyDye5-dUTP incorporated in the synthesized complementary strand; 3' TTTTT single-stranded linker to array surface; dsDNA, one strand shown
# How it was run: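 An Axon 4000B scanner gave the binding signal as per-feature fluorescence intensity in arbitrary units. This followed washing of a custom Agilent array that had been incubated for 1 h at 25 °C with 200 nM protein in PBS, 2% BSA, salmon testes DNA and 50 µM zinc acetate. The proteins were transcription factors fused at the N-terminus to polyhistidine and DsRed, expressed in E. coli BL21-CodonPlus and purified on Ni–NTA.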
row,Sequence,binding signal
1,TAATCTGGGAGACGGGGAGAGTATTGCGTTGAGGCCGTCACGGAGTCACCTAGTGCAG,3250 fluorescence intensity (a.u.)
2,GCTTGCTTTGTCACATGCAGTTTTACACCTTTTATTTCTCCGGAGTCACCTAGTGCAG,6070 fluorescence intensity (a.u.)
3,TCACTGCTATTTCACATGTAACAAGTTACACGTGGAATATCGGAGTCACCTAGTGCAG,8290 fluorescence intensity (a.u.)
4,CATCATCACCTCCATCATCATGCTTTGCTTGCTTGCTCTACGGAGTCACCTAGTGCAG,3140 fluorescence intensity (a.u.)
5,CAACACCGAATTGCAATCCACTCATGATTGGTATCATTAGCGGAGTCACCTAGTGCAG,3340 fluorescence intensity (a.u.)
6,TGTGTGTGTGTGTGTGTGTGTGTGGATGAGTGTGTGTGTGCGGAGTCACCTAGTGCAG,3780 fluorescence intensity (a.u.)
7,ATTAGGTTTTATATTTATCTATATTTAATGCTTCATGTATCGGAGTCACCTAGTGCAG,3440 fluorescence intensity (a.u.)
8,CCCACACCACCACACGCGTCGCGCGTGACTGCAAGCGGATCGGAGTCACCTAGTGCAG,3820 fluorescence intensity (a.u.)
9,ATATGCCGAGATGGCTCCATGATTTGTGTAATAAGTATTTCGGAGTCACCTAGTGCAG,3230 fluorescence intensity (a.u.)
10,AAGAAAGAACATGGAGAAAAGGATGGGAAGAGAGAAGAAACGGAGTCACCTAGTGCAG,3560 fluorescence intensity (a.u.)
11,TGCAAATGGTGTTGCAGAGAAGCTGACACAATATGGTATACGGAGTCACCTAGTGCAG,3240 fluorescence intensity (a.u.)
12,TCTCTATAATTAAACATTCCAATTTCGAAAATGTTGTTAGCGGAGTCACCTAGTGCAG,14300 fluorescence intensity (a.u.)
13,GTTTCTAAAAGTAGTTTGAACACACGTATTCCCAAAATATCGGAGTCACCTAGTGCAG,3250 fluorescence intensity (a.u.)
14,TTATATCTTTTCTTATTAAGCCACATCATCTAAATTGTTTCGGAGTCACCTAGTGCAG,8210 fluorescence intensity (a.u.)
15,AGTTAATCCGTGTTCTTGGGTGACGAATTAACTGACGACCCGGAGTCACCTAGTGCAG,3140 fluorescence intensity (a.u.)
16,ACAGCACCACAGAGCTCAGCTCCTCACGTCTGATCAGACACGGAGTCACCTAGTGCAG,3640 fluorescence intensity (a.u.)
17,GAGTTGAGAGAGAAGAGGCAGTGTCATATTGGTTCCACATCGGAGTCACCTAGTGCAG,3400 fluorescence intensity (a.u.)
18,GATCTATGCTTCGATCTGCATGTTCCAAGTCATGGTGAAGCGGAGTCACCTAGTGCAG,4230 fluorescence intensity (a.u.)
19,CTGATGATGAGAAATACCACCAATTTGAGAGGGATTTATGCGGAGTCACCTAGTGCAG,3330 fluorescence intensity (a.u.)
20,TCCATTTATCCGCTTCCGCCTCCCCTCTCTCCCTGATGCACGGAGTCACCTAGTGCAG,31900 fluorescence intensity (a.u.)
21,GTGACTATGGTCAACGCCAACTAGGCTTGGACAATGAAAGCGGAGTCACCTAGTGCAG,3360 fluorescence intensity (a.u.)
22,CACGTCGATCCCACATGCTGACTCATCGAGTCGACCATGACGGAGTCACCTAGTGCAG,11900 fluorescence intensity (a.u.)
23,AAGTACTCTGCAACTGACTCAGCCACTGGGGCACCTGCATCGGAGTCACCTAGTGCAG,7610 fluorescence intensity (a.u.)
24,ACGCCGCGCGACGCGTGGCTACGACGTGTCGACACCCTAACGGAGTCACCTAGTGCAG,7510 fluorescence intensity (a.u.)
25,GAGAATCATCACTACATTCCTTTGCTACCATGGATTATGTCGGAGTCACCTAGTGCAG,21500 fluorescence intensity (a.u.)
26,CGCGGATGGATGGCGTGGCGATGGCCGAGGATGGATCCGGCGGAGTCACCTAGTGCAG,5280 fluorescence intensity (a.u.)
27,CAGGTGCGTTTCGGGCCCACGTGGCAGTGTGAGCCTGGCACGGAGTCACCTAGTGCAG,10800 fluorescence intensity (a.u.)

row,Sequence,binding signal
1,AACTAAGATCAAGAAATAATTAGCTACAGCAATTAGCAGGCGGAGTCACCTAGTGCAG,3690 fluorescence intensity (a.u.)
2,TGTCATGGAGGATTGCCGGAAGCCTGATGAGTCAGAACAACGGAGTCACCTAGTGCAG,3360 fluorescence intensity (a.u.)
3,ATTTCTATGGGATTCGTCTAGAAAGCTACGATTCCTAGTTCGGAGTCACCTAGTGCAG,22300 fluorescence intensity (a.u.)
4,CTCCTCTCCACCTCAGCTCCCTCCTCGTCGCCACCGTCGTCGGAGTCACCTAGTGCAG,7010 fluorescence intensity (a.u.)
5,ACTATCTGTGTTGTTGAGTTCTTGCGCGTGCGTGCGTCACCGGAGTCACCTAGTGCAG,7570 fluorescence intensity (a.u.)
6,ATCCGCCCTACTACATCCGTGCACCATCTTTCCCTTTCAGCGGAGTCACCTAGTGCAG,3300 fluorescence intensity (a.u.)
7,GTGTGCTGTGTGTGGTCTGAGATGATGTGTACTGCTGCTACGGAGTCACCTAGTGCAG,3950 fluorescence intensity (a.u.)
8,TGGGGATGTGTTGTGGTGAGCTGGAAAGTGCAAACTGGTTCGGAGTCACCTAGTGCAG,5530 fluorescence intensity (a.u.)
9,ATATGTATATATGCGTACGTCTGATTCATCGTTCATCTCCCGGAGTCACCTAGTGCAG,5110 fluorescence intensity (a.u.)
10,TCATCAAGCAAGAAGGCAGTACATCTTCTAAATGACGCAGCGGAGTCACCTAGTGCAG,4360 fluorescence intensity (a.u.)
11,TCACATGCATCCCTGACACGTCAGTATTTCGTTCCATAGCCGGAGTCACCTAGTGCAG,25800 fluorescence intensity (a.u.)
12,AGATTGCCATCGGACGCAGTAAAACGTGTCACTACCCCACCGGAGTCACCTAGTGCAG,7590 fluorescence intensity (a.u.)
13,TGCTATTGAGTTGTCAGCTTCATCCATAAACAAACACCCCCGGAGTCACCTAGTGCAG,4440 fluorescence intensity (a.u.)
14,CCGCCCAACGGCTTCGCCACGCTGCTCCGGCCACCCCTCTCGGAGTCACCTAGTGCAG,3840 fluorescence intensity (a.u.)
15,CTGTGGTCTCGTGCACCGCTGACACCCTCCTGCCACGCCGCGGAGTCACCTAGTGCAG,4500 fluorescence intensity (a.u.)
16,GTGTGTGTGACAGTGCAAGGAGGCAGGCCACCCACTTGGCCGGAGTCACCTAGTGCAG,3980 fluorescence intensity (a.u.)
17,AATAAGGCCCTATACGTGTTCCACGCCGGCACGCGGGTGTCGGAGTCACCTAGTGCAG,5530 fluorescence intensity (a.u.)
18,CGTCATTGGCGTAGCTAATGATTCCAAGTTTCCAACCCCTCGGAGTCACCTAGTGCAG,8780 fluorescence intensity (a.u.)
19,GGAACTTCTGTTTAGGCATTTGCACCTGAAATATGATCTGCGGAGTCACCTAGTGCAG,3190 fluorescence intensity (a.u.)
20,GTCCTCAGGCTCCAGAGGCCGAGTCGGCCCACATAGGCCCCGGAGTCACCTAGTGCAG,27200 fluorescence intensity (a.u.)
21,TATAAGTAACTTAAAGATTTGTGATGTGGATTTGGGATGTCGGAGTCACCTAGTGCAG,5400 fluorescence intensity (a.u.)
22,TTCTTCTCTGGTCTCCCCTGTGTGTTGCTGTTCTATTTCCCGGAGTCACCTAGTGCAG,16800 fluorescence intensity (a.u.)
23,CTAGGGTACGAGCAACAATAATAGAGAGTGACTGAGTGAGCGGAGTCACCTAGTGCAG,3250 fluorescence intensity (a.u.)
24,TATTTTAATTCTAATGCCACATAAGCGCCACATCACAGCCCGGAGTCACCTAGTGCAG,13300 fluorescence intensity (a.u.)
25,CTTCTTTCTTTGTTGCATCTAAGAATTGATGACCTCAGCCCGGAGTCACCTAGTGCAG,3170 fluorescence intensity (a.u.)
26,CAGCCCCGACGCTGGCGCCTGCATCAGCAGCTGCACATGCCGGAGTCACCTAGTGCAG,4090 fluorescence intensity (a.u.)
27,CTCTGCAACCTGCCGTCACCGCCACTACTCAACTCCCTTTCGGAGTCACCTAGTGCAG,3190 fluorescence intensity (a.u.)

# Fetched one by one from the list above (four):
row,Sequence,binding signal
22,TTCTTCTCTGGTCTCCCCTGTGTGTTGCTGTTCTATTTCCCGGAGTCACCTAGTGCAG,16800 fluorescence intensity (a.u.)
5,CAACACCGAATTGCAATCCACTCATGATTGGTATCATTAGCGGAGTCACCTAGTGCAG,3340 fluorescence intensity (a.u.)
9,ATATGCCGAGATGGCTCCATGATTTGTGTAATAAGTATTTCGGAGTCACCTAGTGCAG,3230 fluorescence intensity (a.u.)
6,TGTGTGTGTGTGTGTGTGTGTGTGGATGAGTGTGTGTGTGCGGAGTCACCTAGTGCAG,3780 fluorescence intensity (a.u.)

# From article PMC7819943, “Rice protein-binding microarrays: a tool to detect cis-acting elements near promoter regions in rice”
